Data set [1] deals with GST-ARFa8 DBD (Physcomitrella patens). As to the kind of experiment: EMSA. The following applies: 20 mM Tris pH 7.5, 100 mM KCl, 2 mM DTT, 5% glycerol, 0.1 NP40 (unit not given), 10 MgCl2 (unit not given), 0.5 ug poly(dI-dC), 150 fmol probe in 20 ul; recombinant protein; protein details: GST (pDEST15); label: 3' biotin.
Data set [2] concerns GST-ARFb4 DBD (Physcomitrella patens). As to the kind of experiment: EMSA. Conditions: 20 mM Tris pH 7.5, 100 mM KCl, 2 mM DTT, 5% glycerol, 0.1 NP40 (unit not given), 10 MgCl2 (unit not given), 0.5 ug poly(dI-dC), 150 fmol probe in 20 ul; recombinant protein; protein details: GST (pDEST15); label: 3' biotin.

The exact form of at least one protein or probe is not confirmed.

On to “AGGGTTTGTCCGGTCTGGGAATACATATATGTTGGAGACATGCTC (double strand) [ARFb4 promoter probe (PML1108/1109)]”, for which the binding result in data set [1] and in data set [2] was “binds” each time.

As for “CCTTTTGTCTCCCTTTTGTCTCCCTTTTGTCTCCCTTTTGTCTC (double strand) [DR5 probe (PML839/840)]”, the binding result in data set [1] and in data set [2] was “binds” in each case.

With “GGGGAAGTGGATGAGACACAGGAGATGAGACACAATGGATGAATG (double strand) [IAA1B promoter probe (PML1068/1069)]”, the binding result in data set [1] and in data set [2] was “binds” in each case.

For the sequence “TGTGAGAGAGGGGGGGGGTGTCAGTGTCTCCGGCTTCAGTTTT (double strand) [IAA1A promoter probe (PML1082/1083)]”, the binding result in data set [1] and in data set [2] was “binds” each time.

Source of the values: article PMC4889330.
